Test results from the supplement of paper PMC10849652.
This is one part of the list.

Amino acid sequences for entries named in this document (tags omitted). A change or cut given only in a name is not applied to a line headed by its entry.
UniProt P62136, whole entry, looked up: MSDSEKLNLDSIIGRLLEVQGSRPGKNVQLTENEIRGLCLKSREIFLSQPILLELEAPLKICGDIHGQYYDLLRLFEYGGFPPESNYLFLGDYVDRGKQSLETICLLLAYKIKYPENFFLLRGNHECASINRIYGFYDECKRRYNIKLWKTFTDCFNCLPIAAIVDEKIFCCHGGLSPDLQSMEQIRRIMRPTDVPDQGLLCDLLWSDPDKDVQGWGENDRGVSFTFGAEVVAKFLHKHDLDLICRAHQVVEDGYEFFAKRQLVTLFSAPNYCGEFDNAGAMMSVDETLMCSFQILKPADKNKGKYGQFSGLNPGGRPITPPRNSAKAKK
UniProt Q96QC0: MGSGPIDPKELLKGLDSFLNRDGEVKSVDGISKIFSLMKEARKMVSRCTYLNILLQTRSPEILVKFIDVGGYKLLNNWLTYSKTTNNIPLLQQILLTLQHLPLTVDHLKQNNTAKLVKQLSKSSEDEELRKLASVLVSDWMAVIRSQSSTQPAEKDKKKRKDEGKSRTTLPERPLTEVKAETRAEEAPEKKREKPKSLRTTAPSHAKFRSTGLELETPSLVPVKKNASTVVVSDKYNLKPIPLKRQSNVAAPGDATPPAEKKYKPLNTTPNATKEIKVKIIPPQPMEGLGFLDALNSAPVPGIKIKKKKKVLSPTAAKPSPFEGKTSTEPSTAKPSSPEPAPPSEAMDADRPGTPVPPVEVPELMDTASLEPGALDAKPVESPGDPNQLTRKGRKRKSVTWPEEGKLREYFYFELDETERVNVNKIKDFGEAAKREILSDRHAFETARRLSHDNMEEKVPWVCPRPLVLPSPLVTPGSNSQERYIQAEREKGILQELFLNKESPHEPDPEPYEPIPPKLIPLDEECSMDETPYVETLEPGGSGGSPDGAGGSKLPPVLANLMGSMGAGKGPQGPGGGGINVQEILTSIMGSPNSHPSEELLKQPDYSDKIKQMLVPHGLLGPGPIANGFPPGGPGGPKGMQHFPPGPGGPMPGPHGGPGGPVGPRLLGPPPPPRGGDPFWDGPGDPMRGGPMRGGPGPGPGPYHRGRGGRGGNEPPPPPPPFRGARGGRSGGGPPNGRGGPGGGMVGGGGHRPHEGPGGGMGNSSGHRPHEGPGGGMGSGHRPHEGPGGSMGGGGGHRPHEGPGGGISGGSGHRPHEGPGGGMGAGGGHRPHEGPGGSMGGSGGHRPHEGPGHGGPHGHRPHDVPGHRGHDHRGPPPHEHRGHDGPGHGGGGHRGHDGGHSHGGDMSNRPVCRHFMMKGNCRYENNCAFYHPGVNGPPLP
UniProt Q9NR22, whole entry, looked up: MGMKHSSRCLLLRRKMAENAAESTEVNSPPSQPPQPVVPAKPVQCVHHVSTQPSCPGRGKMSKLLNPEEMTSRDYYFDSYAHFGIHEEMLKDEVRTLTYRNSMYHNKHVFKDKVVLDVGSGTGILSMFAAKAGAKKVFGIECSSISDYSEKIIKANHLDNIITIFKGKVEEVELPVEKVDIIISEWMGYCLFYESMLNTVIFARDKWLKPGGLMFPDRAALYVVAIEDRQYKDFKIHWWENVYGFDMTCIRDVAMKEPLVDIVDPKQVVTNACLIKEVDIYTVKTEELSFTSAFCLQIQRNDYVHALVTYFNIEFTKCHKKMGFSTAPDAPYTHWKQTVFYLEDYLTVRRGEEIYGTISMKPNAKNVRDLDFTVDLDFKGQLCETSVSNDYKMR
UniProt Q13362, whole entry, looked up: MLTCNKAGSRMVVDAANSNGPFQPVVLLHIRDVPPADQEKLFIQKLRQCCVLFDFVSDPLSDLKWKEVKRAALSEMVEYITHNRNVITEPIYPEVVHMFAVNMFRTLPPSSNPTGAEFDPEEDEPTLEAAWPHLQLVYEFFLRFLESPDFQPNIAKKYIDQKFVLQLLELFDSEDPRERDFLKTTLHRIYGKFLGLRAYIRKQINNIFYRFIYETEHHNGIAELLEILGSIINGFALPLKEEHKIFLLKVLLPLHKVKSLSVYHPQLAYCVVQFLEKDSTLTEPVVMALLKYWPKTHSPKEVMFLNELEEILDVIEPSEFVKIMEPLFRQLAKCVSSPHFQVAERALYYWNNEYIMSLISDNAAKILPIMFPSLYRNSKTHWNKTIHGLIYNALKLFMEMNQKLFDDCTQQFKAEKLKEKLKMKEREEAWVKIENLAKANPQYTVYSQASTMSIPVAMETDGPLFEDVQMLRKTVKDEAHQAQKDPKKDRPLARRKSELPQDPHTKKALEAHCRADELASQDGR
UniProt Q13356: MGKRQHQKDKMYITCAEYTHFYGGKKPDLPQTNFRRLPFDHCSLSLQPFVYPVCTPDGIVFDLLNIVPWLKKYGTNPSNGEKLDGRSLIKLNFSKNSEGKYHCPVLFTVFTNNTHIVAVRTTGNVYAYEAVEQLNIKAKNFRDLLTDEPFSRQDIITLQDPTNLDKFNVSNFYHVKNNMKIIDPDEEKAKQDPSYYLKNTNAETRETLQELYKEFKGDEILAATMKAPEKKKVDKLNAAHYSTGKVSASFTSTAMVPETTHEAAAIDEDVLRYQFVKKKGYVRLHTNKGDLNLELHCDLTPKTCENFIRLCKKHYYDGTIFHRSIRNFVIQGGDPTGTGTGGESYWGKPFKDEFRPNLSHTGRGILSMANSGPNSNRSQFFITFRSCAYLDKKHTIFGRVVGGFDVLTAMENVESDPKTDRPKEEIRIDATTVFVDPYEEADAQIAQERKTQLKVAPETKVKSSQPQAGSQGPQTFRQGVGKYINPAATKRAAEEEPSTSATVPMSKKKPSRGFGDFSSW
UniProt P31321, whole entry, looked up: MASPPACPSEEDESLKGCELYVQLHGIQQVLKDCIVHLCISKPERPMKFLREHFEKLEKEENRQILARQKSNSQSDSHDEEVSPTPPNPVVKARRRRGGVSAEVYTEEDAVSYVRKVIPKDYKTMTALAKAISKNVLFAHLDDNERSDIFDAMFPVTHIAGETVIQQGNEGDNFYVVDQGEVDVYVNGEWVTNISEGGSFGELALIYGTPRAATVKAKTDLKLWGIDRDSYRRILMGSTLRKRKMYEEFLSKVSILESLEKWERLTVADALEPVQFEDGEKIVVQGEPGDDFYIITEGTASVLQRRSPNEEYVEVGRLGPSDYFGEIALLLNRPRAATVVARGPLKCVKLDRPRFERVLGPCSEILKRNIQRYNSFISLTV
UniProt P30154, whole entry, looked up: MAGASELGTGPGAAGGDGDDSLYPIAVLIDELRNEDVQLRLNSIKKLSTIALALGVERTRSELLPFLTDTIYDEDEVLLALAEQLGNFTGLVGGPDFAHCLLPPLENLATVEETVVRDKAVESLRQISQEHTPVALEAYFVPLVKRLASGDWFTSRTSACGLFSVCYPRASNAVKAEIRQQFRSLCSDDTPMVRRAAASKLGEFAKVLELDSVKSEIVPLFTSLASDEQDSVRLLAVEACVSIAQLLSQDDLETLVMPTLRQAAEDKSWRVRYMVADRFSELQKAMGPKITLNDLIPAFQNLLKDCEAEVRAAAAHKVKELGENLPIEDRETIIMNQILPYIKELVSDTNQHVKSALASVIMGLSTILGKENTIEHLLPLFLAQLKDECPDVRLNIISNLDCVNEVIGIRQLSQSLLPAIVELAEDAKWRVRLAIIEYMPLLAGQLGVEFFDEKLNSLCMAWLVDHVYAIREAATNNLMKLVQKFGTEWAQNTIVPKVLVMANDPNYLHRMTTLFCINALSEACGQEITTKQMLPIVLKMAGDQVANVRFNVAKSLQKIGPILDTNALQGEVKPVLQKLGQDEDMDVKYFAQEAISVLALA
UniProt Q96BP3: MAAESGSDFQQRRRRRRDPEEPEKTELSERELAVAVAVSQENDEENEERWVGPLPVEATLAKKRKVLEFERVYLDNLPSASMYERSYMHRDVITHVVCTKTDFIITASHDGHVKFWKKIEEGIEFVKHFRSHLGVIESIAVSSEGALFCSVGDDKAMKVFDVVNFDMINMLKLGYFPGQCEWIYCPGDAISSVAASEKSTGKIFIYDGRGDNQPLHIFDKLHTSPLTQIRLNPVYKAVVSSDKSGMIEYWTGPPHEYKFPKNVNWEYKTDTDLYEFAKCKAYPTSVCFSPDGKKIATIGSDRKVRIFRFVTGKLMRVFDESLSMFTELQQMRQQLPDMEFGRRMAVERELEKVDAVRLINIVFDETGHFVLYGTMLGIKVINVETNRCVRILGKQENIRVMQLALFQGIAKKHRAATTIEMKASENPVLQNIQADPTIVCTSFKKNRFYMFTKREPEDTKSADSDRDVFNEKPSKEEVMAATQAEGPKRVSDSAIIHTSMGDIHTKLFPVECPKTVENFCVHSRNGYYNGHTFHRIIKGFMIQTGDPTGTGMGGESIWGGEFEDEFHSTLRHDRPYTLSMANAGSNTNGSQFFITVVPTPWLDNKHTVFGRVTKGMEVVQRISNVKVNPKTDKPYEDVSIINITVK
UniProt Q6NYC8: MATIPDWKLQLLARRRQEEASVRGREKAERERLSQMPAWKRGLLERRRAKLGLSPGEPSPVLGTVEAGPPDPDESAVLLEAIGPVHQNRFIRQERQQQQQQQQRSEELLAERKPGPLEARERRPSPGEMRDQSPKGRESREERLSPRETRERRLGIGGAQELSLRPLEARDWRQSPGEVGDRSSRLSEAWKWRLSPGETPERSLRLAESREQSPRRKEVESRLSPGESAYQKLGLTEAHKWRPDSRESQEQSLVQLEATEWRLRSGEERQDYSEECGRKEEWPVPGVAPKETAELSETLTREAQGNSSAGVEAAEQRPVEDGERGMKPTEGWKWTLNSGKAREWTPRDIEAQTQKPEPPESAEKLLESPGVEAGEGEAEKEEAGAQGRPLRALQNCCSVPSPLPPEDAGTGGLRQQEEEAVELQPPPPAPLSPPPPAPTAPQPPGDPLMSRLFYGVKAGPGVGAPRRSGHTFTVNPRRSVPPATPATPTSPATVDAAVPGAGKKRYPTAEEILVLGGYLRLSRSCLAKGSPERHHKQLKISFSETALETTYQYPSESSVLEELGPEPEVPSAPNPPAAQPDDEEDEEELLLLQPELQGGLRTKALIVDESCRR
UniProt O60678: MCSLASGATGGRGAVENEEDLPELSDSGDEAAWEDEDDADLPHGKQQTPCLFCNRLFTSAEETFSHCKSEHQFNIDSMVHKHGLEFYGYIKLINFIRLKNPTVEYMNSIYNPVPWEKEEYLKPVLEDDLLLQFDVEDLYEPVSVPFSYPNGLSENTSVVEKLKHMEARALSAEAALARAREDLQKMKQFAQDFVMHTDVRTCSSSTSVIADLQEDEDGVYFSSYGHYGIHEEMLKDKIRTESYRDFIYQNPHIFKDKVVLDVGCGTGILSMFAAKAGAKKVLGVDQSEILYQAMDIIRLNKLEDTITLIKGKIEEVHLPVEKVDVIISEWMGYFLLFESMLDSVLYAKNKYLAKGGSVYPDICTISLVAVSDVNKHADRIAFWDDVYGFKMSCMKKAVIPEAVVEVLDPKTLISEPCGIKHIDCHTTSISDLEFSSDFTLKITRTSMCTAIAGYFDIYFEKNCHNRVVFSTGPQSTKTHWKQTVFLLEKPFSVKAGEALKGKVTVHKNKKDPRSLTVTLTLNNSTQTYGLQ
UniProt Q99873, whole entry, looked up: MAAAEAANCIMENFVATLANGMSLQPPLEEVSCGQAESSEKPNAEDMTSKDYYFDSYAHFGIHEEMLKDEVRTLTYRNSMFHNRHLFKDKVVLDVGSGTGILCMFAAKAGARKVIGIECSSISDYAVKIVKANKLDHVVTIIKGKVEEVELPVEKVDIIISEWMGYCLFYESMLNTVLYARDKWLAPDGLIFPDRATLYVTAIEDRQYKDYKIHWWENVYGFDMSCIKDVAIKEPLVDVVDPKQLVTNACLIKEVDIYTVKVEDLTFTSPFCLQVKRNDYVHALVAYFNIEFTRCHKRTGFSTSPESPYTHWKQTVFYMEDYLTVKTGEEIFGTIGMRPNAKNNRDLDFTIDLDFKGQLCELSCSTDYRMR
UniProt Q92733: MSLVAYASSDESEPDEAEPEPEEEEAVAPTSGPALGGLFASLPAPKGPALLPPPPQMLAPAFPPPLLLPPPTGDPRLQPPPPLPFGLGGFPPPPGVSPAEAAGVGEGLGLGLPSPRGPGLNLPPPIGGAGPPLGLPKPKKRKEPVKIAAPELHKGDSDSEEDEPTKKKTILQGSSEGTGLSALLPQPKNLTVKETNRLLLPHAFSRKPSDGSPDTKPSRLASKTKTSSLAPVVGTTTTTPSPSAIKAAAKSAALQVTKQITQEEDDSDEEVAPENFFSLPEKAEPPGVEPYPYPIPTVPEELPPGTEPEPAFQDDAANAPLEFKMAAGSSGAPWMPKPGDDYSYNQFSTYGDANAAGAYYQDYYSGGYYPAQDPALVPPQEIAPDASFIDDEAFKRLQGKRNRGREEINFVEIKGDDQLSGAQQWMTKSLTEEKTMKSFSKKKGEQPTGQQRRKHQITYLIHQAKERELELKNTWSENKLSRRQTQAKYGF
UniProt Q06830: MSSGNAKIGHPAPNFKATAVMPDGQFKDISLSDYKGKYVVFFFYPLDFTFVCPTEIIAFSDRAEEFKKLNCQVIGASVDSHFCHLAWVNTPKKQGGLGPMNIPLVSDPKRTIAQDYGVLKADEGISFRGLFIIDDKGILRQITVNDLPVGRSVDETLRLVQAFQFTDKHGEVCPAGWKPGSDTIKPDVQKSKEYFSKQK

Assays:
Assay in all cases: log2 fold change, soluble protein after heating vs DMSO (PISA); higher = thermal stabilisation; K562 lysate, 10 uM; active = over 0.2 and 3.5 SD of the protein, either way, in both replicates (recomputed)
alvocidib = compound: CN1CC[C@H](c2c(O)cc(O)c3c(=O)cc(-c4ccccc4Cl)oc23)[C@H](O)C1 [alvocidib]
How it was run: (§1)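 Following dounce homogenisation of K562 pellets in PBS pH 7.4 with 1 mM MgCl2, crude extract at 1 mg/mL protein was incubated for 30 min with 10 μM compound. Aliquots were then heated for 3 min over 48°C-58°C and pooled, NP-40 was added to 0.5% at 4°C, and soluble protein was recovered as the supernatant at 21,000xg for 90 min. Channel-sum-equalised TMTpro 16plex LC-MS/MS quantified this protein. Each value, from duplicates, is a log-two fold change in thermal stability relative to solvent controls.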

Tubastatin A = compound: CN1CCc2c(c3ccccc3n2Cc2ccc(C(=O)NO)cc2)C1 [Tubastatin A]
How it was run: as §1

[1] = compound: CNC(=O)C1=CC=CC=C1NC2=NC(=NC=C2Cl)NC3=C(C=C(C=C3)N4CCOCC4)OC
How it was run: as §1

defactinib = compound: CNC(=O)c1ccc(Nc2ncc(C(F)(F)F)c(NCc3nccnc3N(C)S(C)(=O)=O)n2)cc1 [defactinib]
How it was run: as §1

[2] = compound: CNc1nc(-c2ccc3c(N)n[nH]c3c2)cc(N2C[C@@H](C(=O)NC3CCCCC3)CC[C@H]2C)n1
How it was run: as §1

encorafenib = compound: COC(=O)N[C@@H](C)CNc1nccc(-c2cn(C(C)C)nc2-c2cc(Cl)cc(NS(C)(=O)=O)c2F)n1 [encorafenib]
How it was run: as §1

[3] = compound: COC(=O)[C@H](CCSC)NC(=O)C1=C(C=C(C=C1)NC[C@H](CS)N)C2=CC=CC=C2
How it was run: as §1

alisertib = compound: COc1cc(Nc2ncc3c(n2)-c2ccc(Cl)cc2C(c2c(F)cccc2OC)=NC3)ccc1C(=O)O [alisertib]
How it was run: as §1

[4] = compound: COc1cc2nc(-c3cc(F)ccc3O)nc(N[C@@H]3CNC[C@H]3C(C)(C)O)c2cc1OC
How it was run: as §1

gefitinib = compound: COc1cc2ncnc(Nc3ccc(F)c(Cl)c3)c2cc1OCCCN1CCOCC1 [gefitinib]
How it was run: as §1

lapatinib = compound: CS(=O)(=O)CCNCc1ccc(-c2ccc3ncnc(Nc4ccc(OCc5cccc(F)c5)c(Cl)c4)c3c2)o1 [lapatinib]
How it was run: as §1

pictilisib = compound: CS(=O)(=O)N1CCN(Cc2cc3nc(-c4cccc5[nH]ncc45)nc(N4CCOCC4)c3s2)CC1 [pictilisib]
How it was run: as §1

crizotinib = compound: C[C@@H](Oc1cc(-c2cnn(C3CCNCC3)c2)cnc1N)c1c(Cl)ccc(F)c1Cl [crizotinib]
How it was run: as §1

[5] = compound: C[C@H](C1=CC=C(C=C1)C(=O)NC2=C3C=CNC3=NC=C2)N
How it was run: as §1

duvelisib = compound: C[C@H](Nc1ncnc2nc[nH]c12)c1cc2cccc(Cl)c2c(=O)n1-c1ccccc1 [duvelisib]
How it was run: as §1

gandotinib = compound: Cc1cc(Nc2cc(CN3CCOCC3)c3nc(C)c(Cc4ccc(Cl)cc4F)n3n2)n[nH]1 [gandotinib]
How it was run: as §1

tozasertib = compound: Cc1cc(Nc2cc(N3CCN(C)CC3)nc(Sc3ccc(NC(=O)C4CC4)cc3)n2)n[nH]1 [tozasertib]
How it was run: as §1

doramapimod = compound: Cc1ccc(-n2nc(C(C)(C)C)cc2NC(=O)Nc2ccc(OCCN3CCOCC3)c3ccccc23)cc1 [doramapimod]
How it was run: as §1

bafetinib = compound: Cc1ccc(NC(=O)c2ccc(CN3CC[C@H](N(C)C)C3)c(C(F)(F)F)c2)cc1Nc1nccc(-c2cncnc2)n1 [bafetinib]
How it was run: as §1

[6] = compound: Cc1cccc(CC(=O)N2CCc3c2ccc(-c2cn(C)c4ncnc(N)c24)c3F)n1
How it was run: as §1

Target | log2 fold change (alvocidib) | log2 fold change (Tubastatin A) | log2 fold change [1] | log2 fold change (defactinib) | log2 fold change [2] | log2 fold change (encorafenib) | log2 fold change [3] | log2 fold change (alisertib) | log2 fold change [4] | log2 fold change (gefitinib) | log2 fold change (lapatinib) | log2 fold change (pictilisib) | log2 fold change (crizotinib) | log2 fold change [5] | log2 fold change (duvelisib) | log2 fold change (gandotinib) | log2 fold change (tozasertib) | log2 fold change (doramapimod) | log2 fold change (bafetinib) | log2 fold change [6]
PPP1CA (UniProt P62136) | inactive: -0.047 | inactive: 0.001 | inactive: -0.018 | inactive: -0.063 | inactive: -0.016 | inactive: -0.027 | inactive: 0 | inactive: 0.057 | inactive: 0.006 | inactive: 0.018 | inactive: -0.017 | inactive: -0.056 | inactive: -0.007 | inactive: -0.024 | inactive: 0.017 | inactive: 0.019 | inactive: 0.07 | inactive: 0.032 | inactive: 0.003 | inactive: 0.046
PPP1R10 (UniProt Q96QC0) | inactive: -0.025 | inactive: -0.033 | inactive: 0.034 | inactive: 0.008 | inactive: 0.028 | inactive: 0.086 | inactive: -0.028 | inactive: 0.014 | inactive: 0.003 | inactive: 0.003 | inactive: -0.013 | inactive: -0.001 | inactive: -0.003 | inactive: 0.009 | inactive: -0.011 | inactive: 0.07 | inactive: -0.023 | inactive: 0.082 | inactive: -0.079 | inactive: 0.024
PRMT8 (UniProt Q9NR22) | inactive: -0.11 | inactive: -0.019 | inactive: 0.001 | inactive: -0.103 | inactive: -0.005 | inactive: -0.002 | inactive: 0.004 | inactive: -0.01 | inactive: 0.016 | inactive: 0.034 | inactive: -0.011 | inactive: 0.004 | inactive: -0.037 | active: -0.256 | inactive: 0.012 | inactive: 0.071 | inactive: 0.008 | inactive: -0.001 | inactive: -0.112 | inactive: 0.168
PPP2R5C isoform 4 (UniProt Q13362) | inactive: 0.059 | inactive: -0.014 | inactive: -0.022 | inactive: -0.01 | inactive: -0.08 | inactive: -0.03 | inactive: -0.047 | inactive: -0.036 | inactive: 0.009 | inactive: -0.007 | inactive: -0.05 | inactive: 0 | inactive: 0.015 | inactive: -0.051 | inactive: 0.213 | inactive: -0.034 | inactive: 0.025 | inactive: -0.11 | inactive: -0.077 | inactive: 0.055
PPIL2 (UniProt Q13356) | inactive: -0.006 | inactive: -0.1 | inactive: -0.006 | inactive: -0.024 | inactive: 0.056 | inactive: -0.004 | inactive: 0.036 | inactive: -0.018 | inactive: 0.027 | inactive: 0.005 | inactive: -0.034 | inactive: -0.014 | inactive: -0.037 | inactive: -0.011 | inactive: -0.047 | inactive: -0.019 | inactive: 0.047 | inactive: 0.043 | inactive: -0.022 | inactive: 0.054
PRKAR1B (UniProt P31321) | inactive: -0.038 | inactive: -0.069 | inactive: 0.024 | inactive: -0.016 | inactive: -0.126 | inactive: -0.018 | inactive: 0.016 | inactive: -0.015 | inactive: 0.004 | inactive: -0.018 | inactive: -0.034 | inactive: -0.075 | inactive: 0.119 | inactive: -0.124 | inactive: -0.032 | inactive: 0.021 | inactive: 0.083 | inactive: 0.02 | inactive: 0.088 | inactive: 0.046
PPP2R1B isoform 2 (UniProt P30154) | inactive: 0.018 | inactive: -0.034 | inactive: -0.044 | inactive: -0.028 | inactive: -0.016 | inactive: -0.001 | inactive: 0.018 | inactive: 0.003 | inactive: 0.005 | inactive: -0.011 | inactive: -0.012 | inactive: 0.002 | inactive: -0.053 | inactive: 0.024 | inactive: -0.008 | inactive: -0.097 | inactive: 0.015 | inactive: -0.019 | inactive: -0.005 | inactive: -0.022
PPWD1 (UniProt Q96BP3) | inactive: 0.019 | inactive: 0.009 | inactive: 0.016 | inactive: 0.001 | inactive: 0.02 | inactive: 0.009 | inactive: 0.005 | inactive: 0.003 | inactive: -0.001 | inactive: -0.01 | inactive: -0.011 | inactive: 0.002 | inactive: -0.006 | inactive: 0.007 | inactive: -0.028 | inactive: -0.03 | inactive: 0.014 | inactive: 0.006 | inactive: -0.03 | inactive: -0.015
PPP1R18 (UniProt Q6NYC8) | inactive: 0 | inactive: 0.022 | inactive: 0.025 | inactive: 0.002 | inactive: 0.055 | inactive: 0.015 | inactive: 0.006 | inactive: 0.011 | inactive: 0.009 | inactive: 0.027 | inactive: -0.021 | inactive: -0.008 | inactive: 0.03 | inactive: 0.008 | inactive: -0.048 | inactive: 0.025 | inactive: -0.014 | inactive: 0.005 | inactive: 0.006 | inactive: -0.002
PRKACB isoform 2 (UniProt P22694) | inactive: 0.006 | inactive: 0.003 | inactive: 0.011 | inactive: 0.117 | inactive: 0.118 | inactive: -0.018 | inactive: -0.05 | inactive: 0 | active: 0.51 | inactive: 0.006 | inactive: -0.063 | inactive: -0.042 | inactive: -0.018 | inactive: 0.141 | inactive: 0.024 | inactive: -0.071 | inactive: -0.001 | inactive: -0.023 | inactive: -0.04 | inactive: -0.131
PPIH (UniProt O43447) | inactive: 0.019 | inactive: 0.011 | inactive: 0.007 | inactive: 0.003 | inactive: -0.057 | inactive: -0.035 | inactive: 0.056 | inactive: 0.022 | inactive: 0 | inactive: -0.005 | inactive: -0.005 | inactive: -0.012 | inactive: -0.065 | inactive: -0.005 | inactive: -0.004 | inactive: -0.026 | inactive: 0.02 | inactive: 0.029 | inactive: 0.026 | inactive: 0.022
PRMT3 (UniProt O60678) | inactive: 0.01 | inactive: 0.025 | inactive: -0.003 | inactive: -0.006 | inactive: 0.023 | inactive: -0.013 | inactive: -0.03 | inactive: 0.001 | inactive: 0.008 | inactive: -0.034 | inactive: -0.03 | inactive: -0.026 | inactive: -0.024 | inactive: 0.007 | inactive: -0.011 | inactive: -0.042 | inactive: 0.01 | inactive: 0.023 | inactive: 0.034 | inactive: 0.005
PRMT1 (UniProt Q99873) | inactive: -0.074 | inactive: -0.046 | inactive: -0.011 | inactive: -0.028 | inactive: 0.03 | inactive: -0.013 | inactive: -0.035 | inactive: 0.015 | inactive: 0.023 | inactive: -0.02 | inactive: 0 | inactive: 0.002 | inactive: -0.042 | inactive: -0.161 | inactive: 0.017 | inactive: 0.076 | inactive: 0.007 | inactive: 0.038 | inactive: -0.005 | inactive: 0.103
PPP3CA isoform 2 (UniProt Q08209) | inactive: 0.043 | inactive: 0.017 | inactive: 0.033 | inactive: 0.101 | inactive: 0.01 | inactive: 0.023 | inactive: 0 | inactive: 0.061 | inactive: -0.001 | inactive: 0.09 | inactive: -0.008 | inactive: 0.085 | inactive: 0.048 | inactive: 0.075 | inactive: 0.008 | inactive: -0.099 | inactive: -0.068 | inactive: -0.006 | inactive: -0.026 | inactive: -0.091
PRCC (UniProt Q92733) | inactive: -0.005 | inactive: 0.007 | inactive: 0.028 | inactive: 0.048 | inactive: 0.029 | inactive: -0.03 | inactive: 0.078 | inactive: -0.026 | inactive: -0.022 | inactive: 0.028 | inactive: 0.01 | inactive: 0.02 | inactive: 0.023 | inactive: -0.015 | inactive: -0.023 | inactive: 0.086 | inactive: -0.057 | inactive: 0.049 | inactive: 0.028 | inactive: -0.018
PRDX1 (UniProt Q06830) | inactive: -0.027 | inactive: 0.024 | inactive: 0.028 | inactive: -0.011 | inactive: 0.027 | inactive: -0.04 | inactive: -0.041 | inactive: 0.001 | inactive: 0.021 | inactive: -0.049 | inactive: 0.009 | inactive: 0.021 | inactive: 0.034 | inactive: -0.058 | inactive: -0.002 | inactive: 0.096 | inactive: -0.014 | inactive: -0.034 | inactive: 0.035 | inactive: 0.088

Given in markdown: part of the list above.

| Target | log2 fold change (alvocidib) | log2 fold change (Tubastatin A) | log2 fold change [1] | log2 fold change (defactinib) | log2 fold change [2] | log2 fold change (encorafenib) | log2 fold change [3] | log2 fold change (alisertib) | log2 fold change [4] | log2 fold change (gefitinib) | log2 fold change (lapatinib) | log2 fold change (pictilisib) | log2 fold change (crizotinib) | log2 fold change [5] | log2 fold change (duvelisib) | log2 fold change (gandotinib) | log2 fold change (tozasertib) | log2 fold change (doramapimod) | log2 fold change (bafetinib) | log2 fold change [6] |
| --- | --- | --- | --- | --- | --- | --- | --- | --- | --- | --- | --- | --- | --- | --- | --- | --- | --- | --- | --- | --- |
| PRKAR1B (UniProt P31321) | inactive: -0.038 | inactive: -0.069 | inactive: 0.024 | inactive: -0.016 | inactive: -0.126 | inactive: -0.018 | inactive: 0.016 | inactive: -0.015 | inactive: 0.004 | inactive: -0.018 | inactive: -0.034 | inactive: -0.075 | inactive: 0.119 | inactive: -0.124 | inactive: -0.032 | inactive: 0.021 | inactive: 0.083 | inactive: 0.02 | inactive: 0.088 | inactive: 0.046 |
| PPP2R1B isoform 2 (UniProt P30154) | inactive: 0.018 | inactive: -0.034 | inactive: -0.044 | inactive: -0.028 | inactive: -0.016 | inactive: -0.001 | inactive: 0.018 | inactive: 0.003 | inactive: 0.005 | inactive: -0.011 | inactive: -0.012 | inactive: 0.002 | inactive: -0.053 | inactive: 0.024 | inactive: -0.008 | inactive: -0.097 | inactive: 0.015 | inactive: -0.019 | inactive: -0.005 | inactive: -0.022 |
